Laboratory results: PubChem BioAssay AID504774 (Drosophila RNAi Screening Center, 2011)

- Assay: 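Knock-downs that shift viability of MMS-exposed cells relative to untreated ones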 (primary screen)
- Cells: Drosophila Kc167 cells
- Knock-down reagent: long dsRNA against Drosophila genes, about 0.25 µg dsRNA per well
- Time to read-out: about 6 days: 3 days knock-down, then 3 days with or without MMS
- Treatment: methyl methanesulphonate 0.004% (w/v) for 3 days after knock-down
- Detection: 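Viability in wells given MMS, read as ATP luminescence, normalised by quantiles plate by plate and averaged across replicates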
- Scale: mean viability with MMS: higher = more surviving cells after MMS
In all, the deposit lists about 23,000 reagents; below is an unselected part of those that have a named target and a result. 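Values are quantile-normalised luminescence on an arbitrary scale; higher means more cells surviving MMS.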 The numbers tell different reagents against one gene apart. A plus sign joins genes that one reagent is predicted to hit. Not all columns of the deposit are shown.

mean viability with MMS, by target gene and reagent
CG31253 + CG31131: #1 3.52e6
CG12147: #1 3.56e6
lft: #1 3.58e6
saturn: #1 3.59e6
CG13243: #1 3.63e6
CG13699: #1 3.49e6
ACXE: #1 3.52e6
MBD-like: #1 3.56e6
CG2211: #1 3.54e6
CG14968: #1 3.54e6
stet: #1 3.58e6; #2 3.69e6
Elp3: #1 3.46e6
mr: #1 3.35e6; #2 3.48e6
CG3703: #1 3.82e6; #2 3.79e6; #3 3.54e6
CG17600: #1 3.64e6; #2 3.53e6; #3 3.57e6
CG3625: #1 3.68e6; #2 3.51e6
CG14292: #1 3.49e6
eIF5B: #1 3.49e6; #2 3.37e6
PH4alphaNE2: #1 3.45e6
CG14868: #1 2.05e6
pre-mod(mdg4)-AD + mod(mdg4) + pre-mod(mdg4)-X + 3 more: #1 3.60e6
CG13609: #1 3.47e6; #2 3.42e6
CG42262 (retired record): #1 3.68e6; #2 3.73e6
beat-IIIc: #1 3.47e6; #2 3.58e6
CG13566: #1 3.49e6
pAbp: #1 2.84e6
FucTA: #1 3.53e6
veg (retired record): #1 3.65e6
mRpS22: #1 3.65e6
CG31659: #1 3.50e6
CG1105: #1 3.43e6
CG7888: #1 3.71e6
BG642163: #1 3.60e6; #2 3.83e6
vir: #1 3.65e6
ND-B8: #1 3.52e6
CG31145: #1 3.55e6; #2 3.34e6; #3 3.00e6; #4 3.38e6
CG13894: #1 3.13e6; #2 3.66e6
CG13613: #1 3.55e6
betaTub97EF: #1 3.52e6; #2 3.62e6; #3 3.61e6
Galphaq: #1 3.64e6
CG31928: #1 3.71e6
mldr: #1 3.57e6
lama: #1 3.47e6
CG33722 + CG18749: #1 3.69e6; #2 3.53e6
Npc2c: #1 3.56e6
Cpr64Ad: #1 3.47e6
Nab2: #1 3.35e6
CG13055: #1 3.70e6
Dhpr: #1 3.35e6
CG9517 (retired record): #1 3.68e6; #2 3.50e6
gus: #1 3.71e6; #2 3.53e6
Slc25A46b: #1 3.49e6
GatA: #1 3.68e6
hbn: #1 2.79e6; #2 3.54e6; #3 3.52e6; #4 3.48e6
l(3)72Dr: #1 3.57e6
CG1575: #1 3.56e6
smo: #1 3.63e6
CG6788 + CR32496: #1 3.58e6
RhoGEF3 (retired record): #1 3.48e6; #2 3.48e6
CG17570: #1 3.62e6; #2 3.46e6
egr: #1 3.65e6

Look-ups from above.
CG42262 (retired record) #1, mean viability with MMS → 3.68e6
CG3625 #2, mean viability with MMS = 3.51e6
CG17570 #2, mean viability with MMS: 3.46e6
Under “mean viability with MMS”, CG13613 shows 3.55e6
Value of l(3)72Dr in “mean viability with MMS”: 3.57e6
Under “mean viability with MMS”, gus #1 reads 3.71e6
